Data as given in US20160243230A1.
Results are given in words; binding and its absence hold for the method and conditions named. A result given as binding can be weak or reduced; the word gives no strength.

Key:
[1] = molecular target: murine AA amyloid (amyloid enhancing factor, AEF) (mouse); experiment: in vivo, IHC of tissues of p5+14-treated AA mice
[2] = molecular target: murine AA amyloid (amyloid enhancing factor, AEF) (mouse); experiment: pulldown with 125I-peptide, mAA liver homogenate, 0.15 M and 1.0 M NaCl
[3] = molecular target: murine AA amyloid (amyloid enhancing factor, AEF) (mouse); experiment: EuLISA, peptide added to AEF-coated wells, detected with anti-peptide mAb
[4] = molecular target: murine AA amyloid (amyloid enhancing factor, AEF) (mouse); experiment: in vivo, IHC of tissues of p66-treated AA mice
[5] = molecular target: murine AA amyloid (amyloid enhancing factor, AEF) (mouse); experiment: in vivo, microautoradiography of tissues of AA mice
[6] = molecular target: murine AA amyloid (amyloid enhancing factor, AEF) (mouse); experiment: in vivo, AA mice pre-targeted with p66, IHC and autoradiography

Measured: binding

KAQKAQAKQAKQAQKAQKAQAKQAKQAQKAQKAQAKQAKQ [peptide p5+14]
binds: [1] | [2] | [3]

B1: peptide p66 (11-1F4 peptope) (peptide)
peptide: KAQKAQAKQAKQAQKAQKAQAKQAKQAQKAQKAQAKQAKQSVTVVTKHYAAFPENLLI
binds: [4] | [5] | [6] | [2]
